The other results are listed elsewhere or left out.
Experiments:
Test in all cases: log2 fold change, soluble protein after heating vs DMSO (PISA); higher = thermal stabilisation; K562 cells, 10 uM, 30 min; active = over 0.2 and 3.5 SD of the protein, either way, in both replicates (recomputed)
[1] = compound: CS(=O)(=O)c1ccc(-c2cnc(N)c(C(=O)Nc3ccccc3)n2)cc1
How it was run: (§1)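 Aliquots of K562 cells (2×10^6 cells/mL) treated with 10 μM compound for 30 min were heated for 3 min over 48°C-58°C. After pooling and extraction in PBS with 0.5% NP-40 at 4°C, soluble protein from a 21,000xg, 90 min spin was quantified by TMTpro 16plex LC-MS/MS with channel sums equalised. Thermal stability is expressed against control samples, from duplicates, as a log2 fold change.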

Amino acid sequences for entries named in this document (tags omitted). A change or cut given only in a name is not applied to a line headed by its entry.
UniProt P42224: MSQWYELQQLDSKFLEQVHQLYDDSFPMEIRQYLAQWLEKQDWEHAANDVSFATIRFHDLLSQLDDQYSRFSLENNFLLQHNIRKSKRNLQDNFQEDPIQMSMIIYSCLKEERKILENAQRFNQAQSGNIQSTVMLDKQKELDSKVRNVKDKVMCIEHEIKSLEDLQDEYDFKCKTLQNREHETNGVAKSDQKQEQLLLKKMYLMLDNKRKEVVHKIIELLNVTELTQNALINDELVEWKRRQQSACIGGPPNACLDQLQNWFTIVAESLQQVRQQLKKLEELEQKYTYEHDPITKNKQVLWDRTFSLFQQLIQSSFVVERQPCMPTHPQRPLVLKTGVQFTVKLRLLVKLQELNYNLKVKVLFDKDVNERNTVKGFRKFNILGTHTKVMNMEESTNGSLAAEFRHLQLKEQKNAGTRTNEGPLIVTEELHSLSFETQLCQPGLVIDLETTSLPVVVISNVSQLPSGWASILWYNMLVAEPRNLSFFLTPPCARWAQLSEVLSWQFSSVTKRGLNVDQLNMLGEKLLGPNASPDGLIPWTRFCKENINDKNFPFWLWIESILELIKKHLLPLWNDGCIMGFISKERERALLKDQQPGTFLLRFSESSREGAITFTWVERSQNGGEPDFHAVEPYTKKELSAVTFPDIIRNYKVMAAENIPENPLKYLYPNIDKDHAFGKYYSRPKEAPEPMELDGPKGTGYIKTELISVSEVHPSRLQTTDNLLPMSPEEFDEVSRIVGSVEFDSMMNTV
UniProt Q9Y657, whole entry, looked up: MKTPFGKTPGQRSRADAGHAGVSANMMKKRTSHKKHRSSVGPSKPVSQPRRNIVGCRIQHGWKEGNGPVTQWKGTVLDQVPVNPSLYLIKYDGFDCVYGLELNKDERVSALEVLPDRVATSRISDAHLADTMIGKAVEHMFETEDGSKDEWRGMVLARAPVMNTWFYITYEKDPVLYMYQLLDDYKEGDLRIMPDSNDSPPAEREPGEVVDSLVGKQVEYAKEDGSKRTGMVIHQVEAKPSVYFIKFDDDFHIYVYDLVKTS
UniProt P19623: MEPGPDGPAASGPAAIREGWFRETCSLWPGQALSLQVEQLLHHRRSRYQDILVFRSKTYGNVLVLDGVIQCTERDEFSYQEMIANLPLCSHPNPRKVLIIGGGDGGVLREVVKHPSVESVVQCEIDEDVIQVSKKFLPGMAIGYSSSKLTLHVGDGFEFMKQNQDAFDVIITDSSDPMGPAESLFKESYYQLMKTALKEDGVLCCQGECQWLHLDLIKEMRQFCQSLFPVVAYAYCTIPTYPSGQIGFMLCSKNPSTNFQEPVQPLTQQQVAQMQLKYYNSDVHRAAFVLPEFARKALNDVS
UniProt Q13243: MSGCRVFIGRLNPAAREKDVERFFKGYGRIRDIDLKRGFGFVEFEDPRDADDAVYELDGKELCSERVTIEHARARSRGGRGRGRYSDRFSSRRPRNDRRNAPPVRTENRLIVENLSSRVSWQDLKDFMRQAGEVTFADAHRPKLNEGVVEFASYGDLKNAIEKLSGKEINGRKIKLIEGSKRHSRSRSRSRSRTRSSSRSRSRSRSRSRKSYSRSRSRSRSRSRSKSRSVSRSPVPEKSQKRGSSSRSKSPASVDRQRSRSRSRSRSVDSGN
UniProt Q5W111: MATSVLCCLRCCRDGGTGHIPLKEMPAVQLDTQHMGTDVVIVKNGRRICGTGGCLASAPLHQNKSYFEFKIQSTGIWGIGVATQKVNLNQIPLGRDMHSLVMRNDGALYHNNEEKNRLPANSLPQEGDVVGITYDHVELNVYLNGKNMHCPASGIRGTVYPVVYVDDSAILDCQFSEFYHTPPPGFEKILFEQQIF
UniProt Q9C004: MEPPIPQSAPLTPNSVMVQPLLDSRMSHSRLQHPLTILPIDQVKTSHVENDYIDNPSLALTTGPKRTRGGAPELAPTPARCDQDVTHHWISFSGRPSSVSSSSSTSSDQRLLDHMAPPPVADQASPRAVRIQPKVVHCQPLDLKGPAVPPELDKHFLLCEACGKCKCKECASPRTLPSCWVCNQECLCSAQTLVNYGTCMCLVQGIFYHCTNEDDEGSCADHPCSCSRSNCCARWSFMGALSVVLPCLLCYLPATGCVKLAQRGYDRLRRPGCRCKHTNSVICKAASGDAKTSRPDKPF
UniProt Q8WW59: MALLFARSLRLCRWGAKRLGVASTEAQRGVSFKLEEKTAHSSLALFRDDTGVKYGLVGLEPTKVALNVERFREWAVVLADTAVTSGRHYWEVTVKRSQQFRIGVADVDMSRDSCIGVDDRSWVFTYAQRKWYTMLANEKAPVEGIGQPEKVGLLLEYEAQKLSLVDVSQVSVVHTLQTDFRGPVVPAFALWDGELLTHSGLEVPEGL
UniProt O43805: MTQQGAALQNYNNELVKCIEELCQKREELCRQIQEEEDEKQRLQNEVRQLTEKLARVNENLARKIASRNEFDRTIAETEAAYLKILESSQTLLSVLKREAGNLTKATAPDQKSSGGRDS
UniProt Q8NB90: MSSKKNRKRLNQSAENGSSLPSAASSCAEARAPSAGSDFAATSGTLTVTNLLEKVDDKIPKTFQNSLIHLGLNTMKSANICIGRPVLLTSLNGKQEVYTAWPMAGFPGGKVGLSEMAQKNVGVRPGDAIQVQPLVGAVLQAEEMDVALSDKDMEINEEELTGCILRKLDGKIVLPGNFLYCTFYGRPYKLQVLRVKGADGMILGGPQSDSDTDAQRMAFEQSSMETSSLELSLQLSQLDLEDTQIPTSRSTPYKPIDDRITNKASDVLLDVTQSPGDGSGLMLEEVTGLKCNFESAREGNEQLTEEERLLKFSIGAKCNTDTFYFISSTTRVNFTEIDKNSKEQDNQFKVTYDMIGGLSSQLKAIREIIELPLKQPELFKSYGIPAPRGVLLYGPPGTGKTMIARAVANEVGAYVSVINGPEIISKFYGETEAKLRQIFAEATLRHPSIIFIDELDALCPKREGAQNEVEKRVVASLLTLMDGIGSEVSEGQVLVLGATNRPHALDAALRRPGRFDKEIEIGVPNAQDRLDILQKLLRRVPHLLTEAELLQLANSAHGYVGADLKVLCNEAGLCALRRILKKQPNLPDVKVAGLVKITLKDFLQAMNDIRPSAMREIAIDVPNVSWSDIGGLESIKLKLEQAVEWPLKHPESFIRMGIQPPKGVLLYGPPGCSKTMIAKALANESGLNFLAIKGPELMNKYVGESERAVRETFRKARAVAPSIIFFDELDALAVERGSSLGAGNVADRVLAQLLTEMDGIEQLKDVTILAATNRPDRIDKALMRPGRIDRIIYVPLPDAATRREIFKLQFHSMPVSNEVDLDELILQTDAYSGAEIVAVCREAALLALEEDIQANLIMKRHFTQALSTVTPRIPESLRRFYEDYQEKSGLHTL
UniProt Q07955, whole entry, looked up: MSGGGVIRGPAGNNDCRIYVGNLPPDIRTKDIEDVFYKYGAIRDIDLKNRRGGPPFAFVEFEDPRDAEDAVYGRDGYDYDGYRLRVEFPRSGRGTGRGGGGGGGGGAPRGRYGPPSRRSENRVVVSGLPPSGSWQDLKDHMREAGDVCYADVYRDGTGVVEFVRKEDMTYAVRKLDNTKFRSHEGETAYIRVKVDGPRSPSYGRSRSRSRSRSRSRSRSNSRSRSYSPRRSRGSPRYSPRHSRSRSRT
UniProt Q8NBT2: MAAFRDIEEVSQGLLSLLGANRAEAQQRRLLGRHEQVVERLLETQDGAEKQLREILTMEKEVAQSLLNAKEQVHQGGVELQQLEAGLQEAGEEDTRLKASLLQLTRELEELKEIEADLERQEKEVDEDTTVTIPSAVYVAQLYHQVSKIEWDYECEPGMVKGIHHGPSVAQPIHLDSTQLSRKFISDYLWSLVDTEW
UniProt Q9BXP5: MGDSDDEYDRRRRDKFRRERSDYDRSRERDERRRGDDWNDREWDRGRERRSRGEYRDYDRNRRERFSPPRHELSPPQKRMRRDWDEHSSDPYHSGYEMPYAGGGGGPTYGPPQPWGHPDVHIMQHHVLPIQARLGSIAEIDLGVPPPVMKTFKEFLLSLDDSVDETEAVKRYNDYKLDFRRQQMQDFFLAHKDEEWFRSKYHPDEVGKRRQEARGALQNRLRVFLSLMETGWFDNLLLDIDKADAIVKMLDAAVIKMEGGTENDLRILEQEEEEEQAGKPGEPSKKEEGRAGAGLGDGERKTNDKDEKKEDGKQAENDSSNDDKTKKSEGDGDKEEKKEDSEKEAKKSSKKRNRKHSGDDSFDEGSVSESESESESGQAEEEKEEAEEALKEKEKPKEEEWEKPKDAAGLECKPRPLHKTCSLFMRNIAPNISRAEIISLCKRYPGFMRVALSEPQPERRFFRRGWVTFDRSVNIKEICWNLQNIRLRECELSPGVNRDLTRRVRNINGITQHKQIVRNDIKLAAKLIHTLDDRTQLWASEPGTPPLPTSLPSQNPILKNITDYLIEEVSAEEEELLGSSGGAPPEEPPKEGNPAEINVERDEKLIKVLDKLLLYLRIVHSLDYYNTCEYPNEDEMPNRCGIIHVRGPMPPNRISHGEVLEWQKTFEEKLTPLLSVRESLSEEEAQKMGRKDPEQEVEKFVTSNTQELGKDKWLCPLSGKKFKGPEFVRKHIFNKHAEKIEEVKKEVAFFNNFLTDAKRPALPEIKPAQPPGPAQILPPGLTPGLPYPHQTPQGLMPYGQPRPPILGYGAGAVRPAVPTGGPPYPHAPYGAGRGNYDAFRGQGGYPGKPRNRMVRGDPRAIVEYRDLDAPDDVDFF
UniProt Q9NYA1, whole entry, looked up: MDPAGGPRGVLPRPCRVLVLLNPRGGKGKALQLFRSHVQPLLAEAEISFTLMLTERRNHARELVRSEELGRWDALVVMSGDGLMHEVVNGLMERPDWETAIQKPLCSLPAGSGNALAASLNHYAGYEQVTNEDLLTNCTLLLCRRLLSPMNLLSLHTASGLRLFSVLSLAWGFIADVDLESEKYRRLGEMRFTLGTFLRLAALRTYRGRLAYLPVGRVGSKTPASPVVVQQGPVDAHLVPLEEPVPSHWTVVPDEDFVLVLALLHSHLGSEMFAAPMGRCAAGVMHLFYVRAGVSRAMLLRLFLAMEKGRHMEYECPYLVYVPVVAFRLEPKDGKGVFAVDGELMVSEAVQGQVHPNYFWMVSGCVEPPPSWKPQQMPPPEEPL
UniProt O15270: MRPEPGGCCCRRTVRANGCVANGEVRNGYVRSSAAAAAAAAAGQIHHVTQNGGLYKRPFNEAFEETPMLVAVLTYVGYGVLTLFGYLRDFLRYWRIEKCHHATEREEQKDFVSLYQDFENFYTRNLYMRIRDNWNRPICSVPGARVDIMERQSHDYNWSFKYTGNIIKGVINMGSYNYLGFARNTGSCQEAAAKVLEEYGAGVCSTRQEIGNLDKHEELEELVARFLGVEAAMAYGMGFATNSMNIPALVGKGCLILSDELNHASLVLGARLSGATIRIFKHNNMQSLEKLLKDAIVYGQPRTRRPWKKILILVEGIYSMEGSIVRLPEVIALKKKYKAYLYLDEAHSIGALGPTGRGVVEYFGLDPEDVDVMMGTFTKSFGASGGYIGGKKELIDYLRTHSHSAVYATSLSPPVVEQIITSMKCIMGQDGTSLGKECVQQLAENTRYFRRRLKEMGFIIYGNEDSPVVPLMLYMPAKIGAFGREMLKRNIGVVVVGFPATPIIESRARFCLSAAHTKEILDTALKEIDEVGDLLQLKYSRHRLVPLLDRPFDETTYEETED
UniProt Q9HD15: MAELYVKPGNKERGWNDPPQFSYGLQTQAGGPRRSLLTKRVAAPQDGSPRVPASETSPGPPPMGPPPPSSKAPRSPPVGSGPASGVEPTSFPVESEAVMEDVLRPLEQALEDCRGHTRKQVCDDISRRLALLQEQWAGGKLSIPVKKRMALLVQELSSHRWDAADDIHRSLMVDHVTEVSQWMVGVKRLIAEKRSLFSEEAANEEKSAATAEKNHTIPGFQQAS

crizotinib = compound: C[C@@H](Oc1cc(-c2cnn(C3CCNCC3)c2)cnc1N)c1c(Cl)ccc(F)c1Cl [crizotinib]
How it was run: as §1

[2] = compound: C[C@@H]1COCCN1C2=NC(=NC(=C2)C3(CC3)S(=O)(=O)C)C4=C5C=CNC5=CC=C4
How it was run: as §1

[3] = compound: C[C@H](C1=CC=C(C=C1)C(=O)NC2=C3C=CNC3=NC=C2)N
How it was run: as §1

duvelisib = compound: C[C@H](Nc1ncnc2nc[nH]c12)c1cc2cccc(Cl)c2c(=O)n1-c1ccccc1 [duvelisib]
How it was run: as §1

gandotinib = compound: Cc1cc(Nc2cc(CN3CCOCC3)c3nc(C)c(Cc4ccc(Cl)cc4F)n3n2)n[nH]1 [gandotinib]
How it was run: as §1

tozasertib = compound: Cc1cc(Nc2cc(N3CCN(C)CC3)nc(Sc3ccc(NC(=O)C4CC4)cc3)n2)n[nH]1 [tozasertib]
How it was run: as §1

[4] = compound: Cc1cc(SCc2sc(-c3ccc(C(F)(F)F)cc3)nc2C)ccc1OCC(=O)O
How it was run: as §1

doramapimod = compound: Cc1ccc(-n2nc(C(C)(C)C)cc2NC(=O)Nc2ccc(OCCN3CCOCC3)c3ccccc23)cc1 [doramapimod]
How it was run: as §1

ispinesib = compound: Cc1ccc(C(=O)N(CCCN)[C@@H](c2nc3cc(Cl)ccc3c(=O)n2Cc2ccccc2)C(C)C)cc1 [ispinesib]
How it was run: as §1

bafetinib = compound: Cc1ccc(NC(=O)c2ccc(CN3CC[C@H](N(C)C)C3)c(C(F)(F)F)c2)cc1Nc1nccc(-c2cncnc2)n1 [bafetinib]
How it was run: as §1

[5] = compound: Cc1cccc(CC(=O)N2CCc3c2ccc(-c2cn(C)c4ncnc(N)c24)c3F)n1
How it was run: as §1

nilotinib = compound: Cc1cn(-c2cc(NC(=O)c3ccc(C)c(Nc4nccc(-c5cccnc5)n4)c3)cc(C(F)(F)F)c2)cn1 [nilotinib]
How it was run: as §1

[6] = compound: Cc1nc(Nc2n[nH]c3c2CN(C(=O)N[C@H](CN(C)C)c2ccccc2)C3(C)C)c2sccc2n1
How it was run: as §1

dasatinib = compound: Cc1nc(Nc2ncc(C(=O)Nc3c(C)cccc3Cl)s2)cc(N2CCN(CCO)CC2)n1 [dasatinib]
How it was run: as §1

[7] = compound: Cc1ncc(-c2ccnc(Nc3ccc(S(C)(=O)=O)cc3)n2)n1C(C)C
How it was run: as §1

[8] = compound: Cn1cc(-c2ccc3c(c2)CCN3C(=O)Cc2cccc(C(F)(F)F)c2)c2c(N)ncnc21
How it was run: as §1

[9] = compound: Cn1cc(-c2ccc3nnc(C(F)(F)c4ccc5ncccc5c4)n3n2)cn1
How it was run: as §1

tipifarnib = compound: Cn1cncc1[C@@](N)(c1ccc(Cl)cc1)c1ccc2c(c1)c(-c1cccc(Cl)c1)cc(=O)n2C [tipifarnib]
How it was run: as §1

mubritinib = compound: FC(F)(F)c1ccc(/C=C/c2nc(COc3ccc(CCCCn4ccnn4)cc3)co2)cc1 [mubritinib]
How it was run: as §1

Measured: log2 fold change

STAT1 (UniProt P42224)
inactive: [1] -0.003 | crizotinib -0.034 | [2] -0.218 | [3] 0.378 | duvelisib -0.045 | gandotinib 0.081 | tozasertib 0.128 | [4] 0.114 | doramapimod 0.231 | ispinesib -0.13 | bafetinib 0.094 | [5] -0.026 | nilotinib -0.035 | [6] -0.151 | dasatinib 0.101 | [7] -0.007 | [8] -0.111 | [9] -0.1 | tipifarnib 0.132 | mubritinib -0.159

SPIN1 (UniProt Q9Y657)
inactive: [1] 0.108 | crizotinib 0.029 | [2] 0.118 | [3] 0.049 | duvelisib -0.01 | gandotinib -0.022 | tozasertib 0.032 | [4] 0.007 | doramapimod -0.026 | ispinesib 0.03 | bafetinib -0.075 | [5] 0.029 | nilotinib 0.023 | [6] -0.03 | dasatinib 0.036 | [7] 0.047 | [8] -0.056 | [9] -0.183 | tipifarnib -0.01 | mubritinib 0.001

SRM (UniProt P19623)
inactive: [1] 0.053 | crizotinib -0.147 | [2] 0.148 | [3] -0.05 | duvelisib -0.029 | gandotinib 0.034 | tozasertib -0.023 | [4] 0.028 | doramapimod 0.029 | ispinesib -0.016 | bafetinib 0.017 | [5] 0.001 | nilotinib 0.042 | [6] 0.02 | dasatinib -0.018 | [7] -0.042 | [8] 0.061 | [9] 0.049 | tipifarnib -0.069 | mubritinib 0.076

SRSF5 (UniProt Q13243)
inactive: [1] -0.082 | crizotinib 0.003 | [2] -0.387 | [3] -0.05 | duvelisib -0.15 | gandotinib 0.254 | tozasertib 0.109 | [4] 0.042 | doramapimod 0.204 | ispinesib -0.123 | bafetinib 0.189 | [5] -0.06 | nilotinib 0.024 | [6] -0.242 | dasatinib 0.145 | [7] -0.004 | [8] -0.239 | [9] -0.126 | tipifarnib 0.186 | mubritinib -0.15

SPRYD7 (UniProt Q5W111)
inactive: [1] -0.012 | crizotinib -0.056 | [2] 0.124 | [3] -0.061 | duvelisib -0.005 | gandotinib -0.064 | tozasertib -0.11 | [4] -0.053 | doramapimod 0.039 | ispinesib 0.043 | bafetinib 0.017 | [5] 0.064 | nilotinib 0.016 | [6] -0.014 | dasatinib -0.024 | [7] -0.017 | [8] 0.046 | [9] 0.109 | tipifarnib 0.004 | mubritinib 0.098

SPRY4 (UniProt Q9C004)
inactive: [1] -0.043 | crizotinib 0.01 | [2] -0.014 | [3] -0.144 | duvelisib -0.008 | gandotinib -0.064 | tozasertib -0.015 | [4] 0 | doramapimod -0.005 | ispinesib -0.14 | bafetinib 0.054 | [5] -0.005 | nilotinib 0.053 | [6] -0.06 | dasatinib 0.018 | [7] 0.023 | [8] 0.014 | [9] 0 | tipifarnib 0.03 | mubritinib 0.014

SPRYD4 (UniProt Q8WW59)
inactive: [1] 0.006 | crizotinib 0.041 | [2] 0.049 | [3] 0.028 | duvelisib 0.042 | gandotinib -0.094 | tozasertib 0.003 | [4] -0.007 | doramapimod 0.015 | ispinesib 0.093 | bafetinib -0.011 | [5] 0.016 | nilotinib 0.048 | [6] 0.038 | dasatinib 0.003 | [7] -0.018 | [8] 0.057 | [9] -0.021 | tipifarnib 0.019 | mubritinib 0.01

SSNA1 (UniProt O43805)
inactive: [1] -0.071 | crizotinib 0.015 | [2] 0.056 | [3] -0.03 | duvelisib 0.012 | gandotinib -0.157 | tozasertib 0.017 | [4] -0.102 | doramapimod -0.007 | ispinesib 0.108 | bafetinib -0.013 | [5] -0.137 | nilotinib -0.009 | [6] 0.007 | dasatinib 0.04 | [7] -0.003 | [8] 0.037 | [9] -0.033 | tipifarnib -0.054 | mubritinib 0.065

SPATA5 (UniProt Q8NB90)
inactive: [1] -0.016 | crizotinib 0.05 | [2] -0.045 | [3] 0.023 | duvelisib -0.019 | gandotinib 0.011 | tozasertib -0.014 | [4] -0.051 | doramapimod 0.002 | ispinesib 0.03 | bafetinib -0.011 | [5] -0.007 | nilotinib -0.011 | [6] -0.116 | dasatinib 0.018 | [7] 0.055 | [8] -0.004 | [9] -0.026 | tipifarnib 0.024 | mubritinib 0.007

SRSF1 (UniProt Q07955)
inactive: [1] -0.07 | crizotinib -0.05 | [2] -0.269 | [3] 0.1 | duvelisib -0.103 | gandotinib 0.064 | tozasertib -0.038 | [4] -0.024 | doramapimod 0.038 | ispinesib -0.139 | bafetinib 0.135 | [5] -0.166 | nilotinib 0.066 | [6] -0.307 | dasatinib 0.177 | [7] 0.084 | [8] -0.158 | [9] -0.113 | tipifarnib 0.121 | mubritinib -0.078

SPTAN1 isoform 2 (UniProt Q13813)
inactive: [1] -0.033 | crizotinib 0.149 | [2] 0.024 | [3] 0.004 | duvelisib -0.015 | gandotinib -0.017 | tozasertib 0.023 | [4] -0.031 | doramapimod 0.042 | ispinesib 0.051 | bafetinib 0.066 | [5] -0.042 | nilotinib 0.053 | [6] -0.091 | dasatinib 0.038 | [7] 0 | [8] 0.118 | [9] 0.028 | tipifarnib 0.014 | mubritinib -0.016

SPC24 (UniProt Q8NBT2)
inactive: [1] -0.01 | crizotinib -0.011 | [2] 0.143 | [3] -0.09 | duvelisib 0.024 | gandotinib -0.015 | tozasertib 0.181 | [4] 0.043 | doramapimod 0.054 | ispinesib 0.113 | bafetinib -0.02 | [5] 0.07 | nilotinib 0 | [6] -0.034 | dasatinib -0.08 | [7] -0.005 | [8] 0.001 | [9] -0.06 | tipifarnib -0.009 | mubritinib 0.013

SRRT (UniProt Q9BXP5)
inactive: [1] 0.084 | crizotinib -0.13 | [2] 0.217 | [3] 0.004 | duvelisib 0.08 | gandotinib -0.116 | tozasertib 0.052 | [4] 0.187 | doramapimod -0.023 | ispinesib -0.125 | bafetinib 0.078 | [5] 0.042 | nilotinib -0.129 | [6] -0.353 | dasatinib -0.35 | [7] 0.01 | [8] 0.129 | [9] 0.125 | tipifarnib -0.114 | mubritinib 0.104

SPHK1 isoform 2 (UniProt Q9NYA1)
inactive: [1] 0.009 | crizotinib 0.062 | [2] 0.084 | [3] -0.064 | duvelisib 0.044 | gandotinib -0.096 | tozasertib -0.006 | [4] 0.035 | doramapimod 0.016 | ispinesib -0.016 | bafetinib 0.055 | [5] -0.027 | nilotinib -0.02 | [6] 0.09 | dasatinib -0.033 | [7] 0.07 | [8] 0.054 | [9] -0.031 | tipifarnib -0.051 | mubritinib 0.073

SPTLC2 (UniProt O15270)
inactive: [1] 0.048 | crizotinib 0.066 | [2] 0.022 | [3] -0.066 | duvelisib 0.091 | gandotinib 0.055 | tozasertib -0.009 | [4] 0 | doramapimod 0.043 | ispinesib -0.045 | bafetinib -0.058 | [5] 0.013 | nilotinib 0.067 | [6] 0.008 | dasatinib -0.024 | [7] 0.022 | [8] 0.043 | [9] 0.028 | tipifarnib 0.029 | mubritinib 0.068

Random excerpt: two records from the list
SPTAN1 isoform 2 (UniProt Q13813)
inactive: [1] -0.033 | crizotinib 0.149 | [2] 0.024 | [3] 0.004 | duvelisib -0.015 | gandotinib -0.017 | tozasertib 0.023 | [4] -0.031 | doramapimod 0.042 | ispinesib 0.051 | bafetinib 0.066 | [5] -0.042 | nilotinib 0.053 | [6] -0.091 | dasatinib 0.038 | [7] 0 | [8] 0.118 | [9] 0.028 | tipifarnib 0.014 | mubritinib -0.016

SPRYD4 (UniProt Q8WW59)
inactive: [1] 0.006 | crizotinib 0.041 | [2] 0.049 | [3] 0.028 | duvelisib 0.042 | gandotinib -0.094 | tozasertib 0.003 | [4] -0.007 | doramapimod 0.015 | ispinesib 0.093 | bafetinib -0.011 | [5] 0.016 | nilotinib 0.048 | [6] 0.038 | dasatinib 0.003 | [7] -0.018 | [8] 0.057 | [9] -0.021 | tipifarnib 0.019 | mubritinib 0.01

The results go on.

SRA1 (UniProt Q9HD15)
inactive: [1] 0.049 | crizotinib 0.042 | [2] 0.13 | [3] -0.033 | duvelisib 0.039 | gandotinib -0.041 | tozasertib 0.029 | [4] 0.019 | doramapimod -0.016 | ispinesib 0.036 | bafetinib -0.055 | [5] 0.013 | nilotinib -0.005 | [6] 0.008 | dasatinib -0.013 | [7] -0.004 | [8] 0.002 | [9] 0.039 | tipifarnib -0.101 | mubritinib 0.049
